The record followed here is paper PMC8165482.

Chains of the proteins cited; added tags and fusions are not shown. Residues count along the entry.
UniProt Q15116, residues 25-288: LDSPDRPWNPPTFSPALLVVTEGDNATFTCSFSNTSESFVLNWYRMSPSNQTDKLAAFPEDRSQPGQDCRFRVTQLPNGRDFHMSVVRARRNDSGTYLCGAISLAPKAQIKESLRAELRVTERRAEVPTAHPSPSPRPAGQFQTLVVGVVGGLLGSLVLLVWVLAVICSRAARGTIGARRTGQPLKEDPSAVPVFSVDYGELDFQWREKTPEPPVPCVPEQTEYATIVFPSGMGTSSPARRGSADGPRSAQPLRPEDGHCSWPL

These are yes or no findings as the source states them, for the method shown. Binding seen in cells or lysates may run through a third protein. Some entries that bind do so weakly or less than the wild type.

The target of this assay is T1, CD68 (human (endogenous in THP-1)) (UniProt P34810).
T1 sequence: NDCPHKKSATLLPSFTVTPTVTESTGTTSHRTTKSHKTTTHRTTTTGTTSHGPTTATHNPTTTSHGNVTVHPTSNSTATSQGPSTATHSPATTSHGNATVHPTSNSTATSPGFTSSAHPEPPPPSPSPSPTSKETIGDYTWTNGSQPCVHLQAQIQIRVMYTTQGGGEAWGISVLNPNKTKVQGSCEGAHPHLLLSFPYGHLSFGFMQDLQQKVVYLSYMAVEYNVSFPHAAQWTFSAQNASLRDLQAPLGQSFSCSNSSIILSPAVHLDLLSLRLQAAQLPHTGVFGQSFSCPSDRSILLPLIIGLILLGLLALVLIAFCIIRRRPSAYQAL
The assay is described as follows: co-IP; THP-1 derived macrophages lysed in RIPA buffer, lysate pre-cleared with protein A/G-agarose; anti-CD68 antibody overnight at 4°C, protein A/G agarose beads 4 h at 4°C, 6 washes; immunoblotting. A general note: Immunoblotting shows a protein as a band on a membrane.

In the case of “programmed cell death protein 1 (PD-1) (from UniProt Q15116 25-288) (receptor)”, the binding entry is “binds”.
